Assay results taken from paper PMC2777311.
No constants are given. Whether binding was seen depends on the method and setting. For some assays here: Binding seen in cells or lysates may run through a third protein. Some results given as binding are weak or reduced against the parent protein; the word gives no strength. Sequences can lack the tags named with a protein.

Chains of the proteins cited; added tags and fusions are not shown.
UniProt P46940: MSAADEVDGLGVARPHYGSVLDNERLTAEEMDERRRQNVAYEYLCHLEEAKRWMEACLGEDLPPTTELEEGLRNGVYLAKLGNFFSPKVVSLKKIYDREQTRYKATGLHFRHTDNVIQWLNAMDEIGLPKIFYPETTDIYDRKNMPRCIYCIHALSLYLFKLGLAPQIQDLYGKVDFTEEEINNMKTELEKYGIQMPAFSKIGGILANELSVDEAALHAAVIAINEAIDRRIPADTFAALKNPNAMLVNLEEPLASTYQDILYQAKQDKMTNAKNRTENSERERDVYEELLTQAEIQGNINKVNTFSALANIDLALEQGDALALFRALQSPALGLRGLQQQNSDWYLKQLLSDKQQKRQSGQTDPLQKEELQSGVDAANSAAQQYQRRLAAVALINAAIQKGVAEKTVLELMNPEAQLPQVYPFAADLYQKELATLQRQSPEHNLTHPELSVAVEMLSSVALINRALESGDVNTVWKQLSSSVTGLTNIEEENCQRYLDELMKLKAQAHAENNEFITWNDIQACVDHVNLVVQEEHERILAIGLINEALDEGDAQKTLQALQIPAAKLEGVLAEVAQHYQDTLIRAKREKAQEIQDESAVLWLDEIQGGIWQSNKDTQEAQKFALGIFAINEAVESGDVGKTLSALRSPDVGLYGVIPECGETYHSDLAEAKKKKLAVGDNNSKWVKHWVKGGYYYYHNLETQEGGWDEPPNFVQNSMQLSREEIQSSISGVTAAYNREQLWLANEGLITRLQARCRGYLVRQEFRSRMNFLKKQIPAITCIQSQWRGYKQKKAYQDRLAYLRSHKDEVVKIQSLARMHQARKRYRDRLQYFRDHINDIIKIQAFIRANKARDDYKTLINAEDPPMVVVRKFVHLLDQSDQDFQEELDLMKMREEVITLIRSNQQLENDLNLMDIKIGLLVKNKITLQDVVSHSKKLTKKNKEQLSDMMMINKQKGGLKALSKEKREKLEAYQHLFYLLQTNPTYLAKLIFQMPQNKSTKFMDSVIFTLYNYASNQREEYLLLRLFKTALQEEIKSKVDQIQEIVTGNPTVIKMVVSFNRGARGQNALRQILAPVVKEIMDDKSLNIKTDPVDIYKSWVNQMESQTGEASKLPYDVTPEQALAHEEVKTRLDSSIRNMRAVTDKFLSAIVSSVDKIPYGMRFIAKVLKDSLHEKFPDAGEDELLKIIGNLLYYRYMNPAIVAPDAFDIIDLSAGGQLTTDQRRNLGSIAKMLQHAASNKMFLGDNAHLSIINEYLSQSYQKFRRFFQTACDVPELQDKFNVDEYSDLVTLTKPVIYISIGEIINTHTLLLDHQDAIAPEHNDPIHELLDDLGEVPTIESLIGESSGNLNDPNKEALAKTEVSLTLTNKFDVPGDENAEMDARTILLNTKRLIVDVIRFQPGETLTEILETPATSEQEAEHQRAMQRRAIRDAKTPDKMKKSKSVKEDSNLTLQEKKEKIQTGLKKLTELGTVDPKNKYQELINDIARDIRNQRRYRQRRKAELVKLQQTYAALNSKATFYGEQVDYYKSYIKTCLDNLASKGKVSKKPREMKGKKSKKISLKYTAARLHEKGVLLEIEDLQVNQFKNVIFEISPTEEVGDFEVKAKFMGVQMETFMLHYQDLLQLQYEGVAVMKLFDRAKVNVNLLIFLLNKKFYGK

Columns and labels:
His-PipB = target: T1, His-PipB (UniProt Q8ZQ59); assay: pull-down; free IQGAP1 (GST cleaved by TEV protease) combined with resin-bound His-SseI or His-PipB in lysis/binding buffer, overnight at 4 °C; immunoblot with anti-IQGAP1 antibody; both purified
T1 sequence: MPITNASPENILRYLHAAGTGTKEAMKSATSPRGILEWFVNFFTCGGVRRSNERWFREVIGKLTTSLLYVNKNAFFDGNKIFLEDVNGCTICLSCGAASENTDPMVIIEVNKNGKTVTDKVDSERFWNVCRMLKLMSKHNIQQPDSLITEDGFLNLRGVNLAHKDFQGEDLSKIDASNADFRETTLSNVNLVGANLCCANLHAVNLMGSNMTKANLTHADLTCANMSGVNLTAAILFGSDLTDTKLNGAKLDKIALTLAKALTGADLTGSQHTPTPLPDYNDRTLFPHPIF

[1] = target: T2, His-tagged SseI (WT) (S. typhimurium SL1344) (UniProt Q8ZQ79); assay: as above
T2 sequence: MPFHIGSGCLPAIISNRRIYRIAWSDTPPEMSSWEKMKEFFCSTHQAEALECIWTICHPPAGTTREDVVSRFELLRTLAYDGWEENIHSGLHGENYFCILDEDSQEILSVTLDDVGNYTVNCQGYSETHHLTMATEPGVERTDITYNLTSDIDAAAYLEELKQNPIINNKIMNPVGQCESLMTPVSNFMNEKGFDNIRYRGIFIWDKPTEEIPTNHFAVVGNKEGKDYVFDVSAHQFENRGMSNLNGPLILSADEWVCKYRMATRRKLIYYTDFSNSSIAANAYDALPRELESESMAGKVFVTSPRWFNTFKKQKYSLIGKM

GST-IQGAP1 [2] = target: GST-IQGAP1 (UniProt P46940); assay: pull-down; resin-bound GST-IQGAP1 (or GST alone) on GSH-resin incubated with free purified His-SseI proteins overnight at 4 °C; washed 5 times with lysis/binding buffer; immunoblot with anti-His tag antibody; both purified
GST-IQGAP1 [3] = target: GST-IQGAP1 (UniProt P46940); assay: pull-down; increasing amounts of E. coli extracts over-expressing His-tagged SseI proteins (WT and C178A) incubated with GST or GST-IQGAP1, co-precipitated with GSH-agarose resin; immunoblot with anti-His antibody; only the target purified
[4] = target: T3, cya-tagged SseI (S. typhimurium SL1344) (UniProt Q8ZQ79); assay: co-IP; BMDM (caspase-1-/-) infected (MOI of 25) with S. typhimurium with or without psseI-cya; at 6h proteins immunoprecipitated with anti-CyaA antibody and immunoblotted for IQGAP1 or TRIP6
T3 sequence: T2 sequence

Molecule: free IQGAP1 (from UniProt P46940 1-1657)
- binding (His-PipB): no binding
- binding [1]: binds

B1: His-tagged SseI (WT) (protein, UniProt Q8ZQ79 1-322)
chain: T2 sequence
- binding (GST-IQGAP1 [2]): binds
- binding (GST-IQGAP1 [3]): binds

B2: TRIP6, endogenous in BMDM (protein, UniProt Q9Z1Y4 1-480)
chain: MSGPTWLPPKQPEPSRLPQGRSLPRGALGPPTAHGATLQPHPRVNFCPLPPEHCYQPPGVPEDRGPTWVGSHGTPQRLQGLPPDRGIIRPGSLDAEIDSLTSMLADLDGGRSHAPRRPDRQAFEAPPPHAYRGGSLKPSGGAVPTPMLPASHYGGPTPASYATASTPAGPAFPVQVKVAQPVRGCGLPRRGASQASGPLPGPHFPLTGRGEVWGAGYRSHREPGPGVPEGPSGVHIPAGGGRGGGHEPQGPLGQPPEEELERLTKKLVHDMSHPPSGEYFGRCGGCGEDVVGDGAGVVALDRVFHIGCFVCSTCRAQLRGQHFYAVERRAYCESCYVATLEKCSTCSEPILDRILRAMGKAYHPGCFTCVVCHRGLDGIPFTVDATSQIHCIEDFHRKFAPRCSVCGGAIMPEPGQEETVRIVALDRSFHIGCYKCEECGLLLSSEGECQGCYPLDGHILCKACSAWRIQELSATVTTDC
- binding [4]: no binding
